Laboratory results reported in patent publication US6455242B1, “Color photographic element containing speed improving compound” (Eastman Kodak Company, priority 1998, dated 2002).

Assays:
[1] = Multilayer film ML-B, stepped exposure, KODAK FLEXICOLOR (C-41) process; settings: for Speed of G Only / Speed of Neutral: check ML-B-1
[2] = Multilayer film ML-C, Kodak ECN-2 Process; settings: added to Layer 6 at 0.022, check ML-C-1
[3] = Multilayer film ML-A, stepped exposure, KODAK FLEXICOLOR (C-41) process; settings: for Granularity: green layer, neutral exposure, RMS
[4] = Layer 9, solid particle dispersion, N,N-dibutyllauramide added as separate dispersion at 0.135
[5] = Layer 9 at 0.082 mmol/m^2 (6.8 mmol/mol silver), dispersed in three times own weight of N,N-dibutyllauramide
[6] = Layer 9 at 0.082 mmol/m^2, dispersed in three times own weight of N,N-dibutyllauramide
[7] = addenda in L7/L8 at 0.8 mmol/molAg, DIR-3 in L10/L11, check ML-A-1
[8] = addenda in L7/L8 at 0.8 mmol/molAg, DIR-4 in L10/L11, check ML-A-2
[9] = addenda in L7/L8 at 8 mmol/molAg, DIR-3 in L10/L11, check ML-A-1
[10] = addenda in L7/L8 at 8 mmol/molAg, DIR-4 in L10/L11, check ML-A-2
[11] = addenda in L7/L8 at 8 mmol/molAg, DIR-3 in L10/L11
[12] = addenda in L7/L8 at 8 mmol/molAg, DIR-4 in L10/L11
[13] = Layer 9 at 0.082 mmol/m^2, dispersed in twice own weight of N,N-dibutyllauramide

Compound: CCCCCCCCCCCCCCOc1ncnc2nc[nH]c12 [A, 6-(tetradecyloxy)purine]
- Granularity [1, 4]: 19.3 ×10^3
- Speed of G Only [1, 4]: 0.27 stops
- Speed of Neutral [1, 4]: 0.30 stops
- Speed of Neutral [1, 5]: 0.37 stops
- Granularity [1, 6]: 18.3 ×10^3
- Speed of G Only [1, 6]: 0.37 stops
- Speed of Neutral [2]: 0.19 stops
- Speed of G Only vs check [3, 7]: 0.00 stops
- Speed of Neutral vs check [3, 7]: 0.13 stops
- Speed of G Only vs check [3, 8]: 0.04 stops
- Speed of Neutral vs check [3, 8]: 0.07 stops
- Speed of G Only vs check [3, 9]: 0.31 stops
- Speed of Neutral vs check [3, 9]: 0.43 stops
- Speed of G Only vs check [3, 10]: 0.30 stops
- Speed of Neutral vs check [3, 10]: 0.50 stops
- Granularity ([3]; addenda in L7/L8 at 0.8 mmol/molAg, DIR-3 in L10/L11): 15.4 × 10^3
- Granularity ([3]; addenda in L7/L8 at 0.8 mmol/molAg, DIR-4 in L10/L11): 16.6 × 10^3
- Granularity [3, 11]: 14.9 × 10^3
- Granularity [3, 12]: 15.5 × 10^3

Compound: CCCCCCCCCCOc1ncnc2[nH]cnc12 [CC-1, reference compound]
- Speed of Neutral [1, 5]: −0.20 stops
- Granularity [1, 6]: 23.4 ×10^3
- Speed of G Only [1, 6]: −0.17 stops
- Speed of G Only vs check [3, 9]: −0.73 stops
- Speed of Neutral vs check [3, 9]: −0.83 stops
- Speed of G Only vs check [3, 10]: −0.76 stops
- Speed of Neutral vs check [3, 10]: −1.57 stops
- Granularity [3, 11]: 12.6 × 10^3
- Granularity [3, 12]: 9.4 × 10^3

Compound: CCCCCCCCCCCCCCC(Sc1nc2nc(C)cc(O)n2n1)C(=O)OCC(CC)CCCC (stereo not shown) [AN]
- Speed of Neutral [1, 5]: 0.23 stops
- Granularity [1, 6]: 16.9 ×10^3
- Speed of G Only [1, 6]: 0.27 stops

Compound: CCCCCCCCCCCCCCCCOc1ncnc2[nH]cnc12 [Y]
- Speed of Neutral [1, 5]: 0.40 stops
- Granularity [1, 6]: 20.1 ×10^3
- Speed of G Only [1, 6]: 0.40 stops

Compound: Oc1ncnc2[nH]cnc12 [CC-2, reference compound]
- Speed of Neutral [1, 5]: 0.00 stops
- Granularity [1, 6]: 20.6 ×10^3
- Speed of G Only [1, 6]: 0.00 stops

Compound: CCCCCCCCCCCCOCCCCCCOc1ncnc2[nH]cnc12 [AC]
- Speed of Neutral [1, 5]: 0.27 stops
- Granularity [1, 6]: 21.5 ×10^3
- Speed of G Only [1, 6]: 0.27 stops

Compound: CCCCCCCCCCCCCCC(Sc1nnc2nc(C)cc(O)n12)C(=O)NC(C)C (stereo not shown) [AS]
- Speed of Neutral [1, 5]: 0.20 stops
- Granularity [1, 6]: 17.8 ×10^3
- Speed of G Only [1, 6]: 0.20 stops

Compound: CCCCCCCCCCCCCCS(=O)(=O)c1ncnc2[nH]cnc12 [CC-11, reference compound]
- Speed of Neutral [1, 5]: 0.03 stops
- Granularity [1, 6]: 22.1 ×10^3
- Speed of G Only [1, 6]: 0.03 stops

Compound: CCCCCCCCCC(CCCC)Oc1ncnc2[nH]cnc12 (stereo not shown) [C]
- Speed of Neutral [1, 5]: 0.37 stops
- Granularity [1, 6]: 20.8 ×10^3
- Speed of G Only [1, 6]: 0.37 stops

Compound: CCCCCCCCCCCCCCCCOC(=O)CCCSc1ncnc2[nH]cnc12 [AE]
- Speed of Neutral [1, 5]: 0.27 stops
- Granularity [1, 6]: 21.3 ×10^3
- Speed of G Only [1, 6]: 0.30 stops

Compound: CCCCCCCCCCCCCCCc1ccc2[nH]cnc2c1 [CC-8, reference compound]
- Speed of Neutral [1, 5]: 0.03 stops
- Granularity [1, 6]: 19.3 ×10^3
- Speed of G Only [1, 6]: 0.03 stops

Compound: CCCCC(Oc1ccc(C(C)(C)CC)cc1C(C)(C)CC)C(=O)Nc1ccc2[nH]nnc2c1 (stereo not shown) [BD]
- Granularity [1, 13]: 17.4 ×10^3
- Speed of G Only [1, 13]: 0.40 stops
- Speed of Neutral [1, 13]: 0.40 stops

Compound: Sc1ncnc2[nH]cnc12 [CC-5, reference compound]
- Speed of Neutral [1, 5]: −1.57 stops
- Granularity [1, 6]: 25.6 ×10^3
- Speed of G Only [1, 6]: −1.10 stops
